At least one compound was matched to its structure with a doubt left.
Test system: Caco-2 cells
Assay: Inflammatory cytokine gene expression in Caco-2 cells exposed to S. enteritidis (macroarray, Northern, real-time PCR)
Assay type: cell-based
Settings: 10^8 S. enteritidis plus drug 10-30 μM, 2 hours

CC1(COc2ccc(CC3SC(=O)NC3=O)cc2)CCCCC1 (stereo not shown) [ciglitazone, reference compound]
Activation of inflammatory cytokine expression (TNF-α, IL-8, COX-2) by S. enteritidis: attenuated
